# Results: the supplement of paper PMC10849652
# Sequences of proteins named here, by UniProt entry; tags and fusion partners are left off. A change or cut given only in a name is not applied to a line headed by its entry.
# UniProt Q6IBW4: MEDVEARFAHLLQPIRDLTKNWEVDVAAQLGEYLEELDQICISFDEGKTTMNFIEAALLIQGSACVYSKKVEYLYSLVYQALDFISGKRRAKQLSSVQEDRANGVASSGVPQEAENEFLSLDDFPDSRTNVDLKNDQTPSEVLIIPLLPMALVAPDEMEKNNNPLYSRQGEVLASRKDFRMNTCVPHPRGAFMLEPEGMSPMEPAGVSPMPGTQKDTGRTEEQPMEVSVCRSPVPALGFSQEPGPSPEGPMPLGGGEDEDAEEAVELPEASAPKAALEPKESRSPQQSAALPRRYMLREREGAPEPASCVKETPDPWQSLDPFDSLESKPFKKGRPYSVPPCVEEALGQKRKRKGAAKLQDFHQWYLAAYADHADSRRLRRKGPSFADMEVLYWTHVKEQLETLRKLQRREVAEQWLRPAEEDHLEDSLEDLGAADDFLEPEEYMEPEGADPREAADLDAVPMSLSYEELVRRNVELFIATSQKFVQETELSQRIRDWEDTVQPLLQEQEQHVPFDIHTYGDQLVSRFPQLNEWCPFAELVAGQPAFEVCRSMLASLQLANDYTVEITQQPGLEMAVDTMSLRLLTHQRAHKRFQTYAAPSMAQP
# UniProt Q96I59: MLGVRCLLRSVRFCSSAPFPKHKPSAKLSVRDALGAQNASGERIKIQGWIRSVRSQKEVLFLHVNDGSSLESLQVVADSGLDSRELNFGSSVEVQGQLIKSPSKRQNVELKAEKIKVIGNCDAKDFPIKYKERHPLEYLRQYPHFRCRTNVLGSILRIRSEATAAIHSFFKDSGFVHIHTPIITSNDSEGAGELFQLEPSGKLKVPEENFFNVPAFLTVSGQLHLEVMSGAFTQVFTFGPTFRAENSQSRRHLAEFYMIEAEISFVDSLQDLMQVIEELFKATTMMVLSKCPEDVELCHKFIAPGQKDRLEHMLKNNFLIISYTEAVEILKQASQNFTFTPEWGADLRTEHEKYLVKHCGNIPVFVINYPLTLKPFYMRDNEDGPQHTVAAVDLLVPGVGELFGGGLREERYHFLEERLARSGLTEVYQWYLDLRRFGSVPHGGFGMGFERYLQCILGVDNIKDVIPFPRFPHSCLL
# UniProt Q13772: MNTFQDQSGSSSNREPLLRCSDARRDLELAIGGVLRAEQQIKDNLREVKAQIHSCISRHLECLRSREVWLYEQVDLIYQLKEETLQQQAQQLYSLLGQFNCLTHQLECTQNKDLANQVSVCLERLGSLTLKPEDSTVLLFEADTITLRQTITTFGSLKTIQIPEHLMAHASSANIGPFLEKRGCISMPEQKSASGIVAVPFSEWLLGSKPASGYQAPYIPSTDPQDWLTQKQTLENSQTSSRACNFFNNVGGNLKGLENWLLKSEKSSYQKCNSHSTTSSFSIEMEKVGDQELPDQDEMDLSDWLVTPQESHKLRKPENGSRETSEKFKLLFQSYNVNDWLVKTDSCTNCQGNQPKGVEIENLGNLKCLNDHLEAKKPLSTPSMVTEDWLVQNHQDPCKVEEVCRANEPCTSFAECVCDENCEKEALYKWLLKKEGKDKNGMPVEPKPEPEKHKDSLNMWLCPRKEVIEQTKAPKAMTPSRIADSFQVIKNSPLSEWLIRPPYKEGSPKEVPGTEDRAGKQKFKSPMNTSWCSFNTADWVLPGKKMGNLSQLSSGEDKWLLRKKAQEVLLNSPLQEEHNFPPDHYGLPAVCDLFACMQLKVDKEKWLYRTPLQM
# UniProt Q96RE7: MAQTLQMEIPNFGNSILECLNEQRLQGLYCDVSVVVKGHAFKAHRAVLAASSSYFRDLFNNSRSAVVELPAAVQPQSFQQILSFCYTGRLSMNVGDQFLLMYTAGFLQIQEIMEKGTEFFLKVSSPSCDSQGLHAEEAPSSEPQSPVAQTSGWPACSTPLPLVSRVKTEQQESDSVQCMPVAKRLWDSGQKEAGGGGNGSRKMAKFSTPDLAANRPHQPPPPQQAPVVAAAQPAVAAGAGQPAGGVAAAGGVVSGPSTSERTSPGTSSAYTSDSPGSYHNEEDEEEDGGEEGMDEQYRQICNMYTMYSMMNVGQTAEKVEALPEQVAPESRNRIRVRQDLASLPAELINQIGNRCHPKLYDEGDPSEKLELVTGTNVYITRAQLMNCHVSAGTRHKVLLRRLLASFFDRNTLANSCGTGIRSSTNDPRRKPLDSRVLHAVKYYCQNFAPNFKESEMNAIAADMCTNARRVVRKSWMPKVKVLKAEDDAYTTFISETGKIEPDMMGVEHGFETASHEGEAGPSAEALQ
# UniProt Q92542, whole entry, looked up: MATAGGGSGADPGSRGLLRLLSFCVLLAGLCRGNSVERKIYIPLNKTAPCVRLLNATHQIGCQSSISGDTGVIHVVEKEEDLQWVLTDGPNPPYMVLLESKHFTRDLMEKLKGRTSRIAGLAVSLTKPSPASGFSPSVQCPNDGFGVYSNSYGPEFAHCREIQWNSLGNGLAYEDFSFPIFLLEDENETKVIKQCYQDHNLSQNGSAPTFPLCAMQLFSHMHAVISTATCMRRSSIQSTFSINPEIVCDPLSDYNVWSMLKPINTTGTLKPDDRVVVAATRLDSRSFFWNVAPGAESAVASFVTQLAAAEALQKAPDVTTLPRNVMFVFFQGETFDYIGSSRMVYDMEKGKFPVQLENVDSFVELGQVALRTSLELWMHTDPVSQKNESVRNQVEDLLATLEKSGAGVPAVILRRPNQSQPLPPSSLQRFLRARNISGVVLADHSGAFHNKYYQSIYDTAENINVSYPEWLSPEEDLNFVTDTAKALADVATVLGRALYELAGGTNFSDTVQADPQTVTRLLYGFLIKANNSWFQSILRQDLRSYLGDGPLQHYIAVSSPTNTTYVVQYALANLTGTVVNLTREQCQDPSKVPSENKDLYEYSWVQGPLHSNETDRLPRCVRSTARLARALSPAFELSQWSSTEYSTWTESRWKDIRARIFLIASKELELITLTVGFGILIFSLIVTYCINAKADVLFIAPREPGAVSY
# UniProt O43776: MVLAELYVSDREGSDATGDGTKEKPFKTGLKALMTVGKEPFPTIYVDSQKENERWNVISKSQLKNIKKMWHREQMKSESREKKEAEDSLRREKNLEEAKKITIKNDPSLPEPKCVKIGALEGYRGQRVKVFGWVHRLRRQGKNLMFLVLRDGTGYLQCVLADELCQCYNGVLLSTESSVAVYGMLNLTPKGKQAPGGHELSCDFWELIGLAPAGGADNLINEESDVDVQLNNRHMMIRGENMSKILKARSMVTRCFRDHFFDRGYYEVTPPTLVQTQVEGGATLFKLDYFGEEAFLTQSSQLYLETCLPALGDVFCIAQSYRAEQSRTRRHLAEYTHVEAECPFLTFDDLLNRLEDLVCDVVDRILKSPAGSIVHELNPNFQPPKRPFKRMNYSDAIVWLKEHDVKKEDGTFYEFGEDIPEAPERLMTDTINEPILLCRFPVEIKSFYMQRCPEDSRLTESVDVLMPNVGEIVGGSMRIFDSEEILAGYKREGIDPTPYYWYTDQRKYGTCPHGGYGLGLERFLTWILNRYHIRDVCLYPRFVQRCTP
# UniProt Q8NFP9, whole entry, looked up: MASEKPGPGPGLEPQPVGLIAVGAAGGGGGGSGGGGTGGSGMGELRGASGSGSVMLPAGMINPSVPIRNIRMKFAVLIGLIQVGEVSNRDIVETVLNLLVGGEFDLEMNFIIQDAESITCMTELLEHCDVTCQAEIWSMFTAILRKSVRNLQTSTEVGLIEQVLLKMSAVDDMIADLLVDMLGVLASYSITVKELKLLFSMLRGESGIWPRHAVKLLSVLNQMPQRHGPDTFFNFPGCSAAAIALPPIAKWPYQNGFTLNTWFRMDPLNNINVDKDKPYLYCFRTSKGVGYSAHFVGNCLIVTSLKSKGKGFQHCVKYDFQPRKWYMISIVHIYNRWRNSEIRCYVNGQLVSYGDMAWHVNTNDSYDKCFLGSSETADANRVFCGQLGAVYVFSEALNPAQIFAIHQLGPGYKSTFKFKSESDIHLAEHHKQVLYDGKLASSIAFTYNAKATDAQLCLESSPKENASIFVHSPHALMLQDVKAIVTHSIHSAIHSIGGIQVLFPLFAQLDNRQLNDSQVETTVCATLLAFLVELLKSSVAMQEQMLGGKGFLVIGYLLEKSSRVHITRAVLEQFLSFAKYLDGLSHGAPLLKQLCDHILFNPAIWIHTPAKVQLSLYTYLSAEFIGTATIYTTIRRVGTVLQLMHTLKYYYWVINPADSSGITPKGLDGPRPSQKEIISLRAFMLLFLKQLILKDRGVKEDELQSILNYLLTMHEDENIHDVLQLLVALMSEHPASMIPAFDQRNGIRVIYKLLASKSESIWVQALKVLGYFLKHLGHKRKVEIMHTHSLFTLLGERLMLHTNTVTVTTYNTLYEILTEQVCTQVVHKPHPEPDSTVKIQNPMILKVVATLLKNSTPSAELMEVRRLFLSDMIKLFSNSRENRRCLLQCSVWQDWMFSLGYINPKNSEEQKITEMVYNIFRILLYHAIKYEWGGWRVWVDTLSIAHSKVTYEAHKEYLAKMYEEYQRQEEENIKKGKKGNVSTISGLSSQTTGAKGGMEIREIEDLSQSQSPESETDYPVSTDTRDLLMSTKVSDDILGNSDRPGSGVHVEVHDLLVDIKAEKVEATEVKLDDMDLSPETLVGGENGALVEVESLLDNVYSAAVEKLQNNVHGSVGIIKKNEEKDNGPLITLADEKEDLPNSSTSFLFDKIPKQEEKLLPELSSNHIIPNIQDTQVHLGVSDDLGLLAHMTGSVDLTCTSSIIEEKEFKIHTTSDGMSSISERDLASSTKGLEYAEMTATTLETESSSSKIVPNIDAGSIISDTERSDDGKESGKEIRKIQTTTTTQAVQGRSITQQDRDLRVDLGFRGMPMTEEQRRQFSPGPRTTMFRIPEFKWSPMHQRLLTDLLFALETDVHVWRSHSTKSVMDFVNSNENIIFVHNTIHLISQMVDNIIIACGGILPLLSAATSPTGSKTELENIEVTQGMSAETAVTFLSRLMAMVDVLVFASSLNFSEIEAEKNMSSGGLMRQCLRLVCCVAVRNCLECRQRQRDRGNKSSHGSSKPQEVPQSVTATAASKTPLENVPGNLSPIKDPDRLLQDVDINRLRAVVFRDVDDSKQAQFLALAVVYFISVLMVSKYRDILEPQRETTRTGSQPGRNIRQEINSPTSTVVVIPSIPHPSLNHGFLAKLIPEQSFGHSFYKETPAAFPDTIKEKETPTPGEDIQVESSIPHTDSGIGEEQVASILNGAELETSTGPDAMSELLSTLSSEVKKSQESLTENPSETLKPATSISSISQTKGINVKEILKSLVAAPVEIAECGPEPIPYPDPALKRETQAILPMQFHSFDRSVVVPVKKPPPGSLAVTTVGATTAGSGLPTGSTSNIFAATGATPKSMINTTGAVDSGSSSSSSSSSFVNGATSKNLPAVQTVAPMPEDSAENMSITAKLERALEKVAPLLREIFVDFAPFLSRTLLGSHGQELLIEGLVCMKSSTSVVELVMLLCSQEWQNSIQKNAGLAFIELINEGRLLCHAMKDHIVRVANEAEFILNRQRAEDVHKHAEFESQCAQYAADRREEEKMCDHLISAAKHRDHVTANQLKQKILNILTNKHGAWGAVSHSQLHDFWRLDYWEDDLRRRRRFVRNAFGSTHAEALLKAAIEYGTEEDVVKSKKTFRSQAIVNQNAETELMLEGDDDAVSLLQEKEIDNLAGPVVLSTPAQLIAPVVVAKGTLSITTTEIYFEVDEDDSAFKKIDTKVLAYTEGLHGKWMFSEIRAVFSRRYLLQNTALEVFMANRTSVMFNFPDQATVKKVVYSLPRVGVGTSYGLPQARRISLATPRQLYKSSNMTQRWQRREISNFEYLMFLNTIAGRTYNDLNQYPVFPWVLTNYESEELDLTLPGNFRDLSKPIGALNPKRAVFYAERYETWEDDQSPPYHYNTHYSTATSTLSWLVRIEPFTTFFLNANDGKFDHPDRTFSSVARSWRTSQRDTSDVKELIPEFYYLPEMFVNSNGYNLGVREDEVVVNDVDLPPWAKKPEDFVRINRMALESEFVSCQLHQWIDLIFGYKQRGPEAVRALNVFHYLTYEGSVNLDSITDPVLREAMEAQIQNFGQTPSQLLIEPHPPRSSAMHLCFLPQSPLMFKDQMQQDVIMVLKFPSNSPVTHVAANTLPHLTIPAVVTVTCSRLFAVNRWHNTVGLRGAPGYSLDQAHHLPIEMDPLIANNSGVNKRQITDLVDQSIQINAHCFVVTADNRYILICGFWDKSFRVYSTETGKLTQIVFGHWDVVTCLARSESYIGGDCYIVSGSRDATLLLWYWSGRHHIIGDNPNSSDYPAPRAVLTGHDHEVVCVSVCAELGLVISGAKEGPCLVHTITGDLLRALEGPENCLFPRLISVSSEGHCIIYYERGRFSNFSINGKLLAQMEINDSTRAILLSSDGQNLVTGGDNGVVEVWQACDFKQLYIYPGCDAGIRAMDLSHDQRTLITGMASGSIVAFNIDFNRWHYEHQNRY
# The list shows a part of the results.
# Legend:
# Experiment in all cases: log2 fold change, soluble protein after heating vs DMSO (PISA); higher = thermal stabilisation; K562 lysate, 10 uM; active = over 0.2 and 3.5 SD of the protein, either way, in both replicates (recomputed)
# nilotinib = compound: Cc1cn(-c2cc(NC(=O)c3ccc(C)c(Nc4nccc(-c5cccnc5)n4)c3)cc(C(F)(F)F)c2)cn1 [nilotinib]
# Procedure, shortened: (§1)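 Values give the log-two fold change in thermal stability against solvent controls, from duplicates. Crude K562 extract at 1 mg/mL protein, made by dounce homogenisation in PBS pH 7.4 with 1 mM MgCl2, was treated with 10 μM compound for 30 min. After 3 min heating across 48°C-58°C, aliquots were pooled, adjusted to 0.5% NP-40 at 4°C and centrifuged at 21,000xg for 90 min. The supernatant was measured by TMTpro 16plex LC-MS/MS with channel sums equalised.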
# [1] = compound: Cc1nc(Nc2n[nH]c3c2CN(C(=O)N[C@H](CN(C)C)c2ccccc2)C3(C)C)c2sccc2n1
# Procedure, shortened: as §1
# dasatinib = compound: Cc1nc(Nc2ncc(C(=O)Nc3c(C)cccc3Cl)s2)cc(N2CCN(CCO)CC2)n1 [dasatinib]
# Procedure, shortened: as §1
# [2] = compound: Cc1ncc(-c2ccnc(Nc3ccc(S(C)(=O)=O)cc3)n2)n1C(C)C
# Procedure, shortened: as §1
# [3] = compound: Cn1cc(-c2ccc3c(c2)CCN3C(=O)Cc2cccc(C(F)(F)F)c2)c2c(N)ncnc21
# Procedure, shortened: as §1
# quisinostat = compound: Cn1cc(CNCC2CCN(c3ncc(C(=O)NO)cn3)CC2)c2ccccc21 [quisinostat]
# Procedure, shortened: as §1
# tipifarnib = compound: Cn1cncc1[C@@](N)(c1ccc(Cl)cc1)c1ccc2c(c1)c(-c1cccc(Cl)c1)cc(=O)n2C [tipifarnib]
# Procedure, shortened: as §1
# [4] = compound: NC(=O)Nc1cc(-c2cccc(F)c2)sc1C(=O)N[C@H]1CCCNC1
# Procedure, shortened: as §1
# [5] = compound: NC(=O)c1cnc(N[C@@H]2CCCC[C@@H]2N)nc1Nc1cccc(-n2nccn2)c1
# Procedure, shortened: as §1
# [6] = compound: NC1(c2ccc(-c3nc4ccn5c(=O)[nH]nc5c4cc3-c3ccccc3)cc2)CCC1
# Procedure, shortened: as §1
# [7] = compound: NCC(=O)Nc1ccc(-n2nc(C(F)(F)F)cc2-c2ccc3c(ccc4ccccc43)c2)cc1
# Procedure, shortened: as §1
# vorinostat = compound: O=C(CCCCCCC(=O)Nc1ccccc1)NO [vorinostat]
# Procedure, shortened: as §1
# silmitasertib = compound: O=C(O)c1ccc2c(c1)nc(Nc1cccc(Cl)c1)c1ccncc12 [silmitasertib]
# Procedure, shortened: as §1
# [8] = compound: O=C1NC(=O)C(c2cnc3ccccn23)=C1c1cn2c3c(cc(F)cc13)CN(C(=O)N1CCCCC1)CC2
# Procedure, shortened: as §1
# entospletinib = compound: c1cn2cc(-c3ccc4cn[nH]c4c3)nc(Nc3ccc(N4CCOCC4)cc3)c2n1 [entospletinib]
# Procedure, shortened: as §1
Target,log2 fold change (nilotinib),log2 fold change [1],log2 fold change (dasatinib),log2 fold change [2],log2 fold change [3],log2 fold change (quisinostat),log2 fold change (tipifarnib),log2 fold change [4],log2 fold change [5],log2 fold change [6],log2 fold change [7],log2 fold change (vorinostat),log2 fold change (silmitasertib),log2 fold change [8],log2 fold change (entospletinib)
NACA4P (UniProt Q9BZK3),inactive: 0.03,inactive: -0.005,inactive: -0.019,inactive: -0.02,inactive: -0.095,inactive: 0.069,inactive: -0.023,inactive: 0.008,inactive: 0.006,inactive: -0.09,inactive: 0.201,inactive: 0.304,inactive: 0,inactive: 0.014,inactive: -0.172
NAA35 (UniProt Q5VZE5),inactive: -0.019,inactive: 0.014,inactive: -0.005,inactive: 0.009,inactive: 0.01,inactive: -0.075,inactive: 0.034,inactive: 0.001,inactive: -0.035,inactive: 0.016,inactive: -0.04,active: -0.308,inactive: 0.017,inactive: 0.004,inactive: 0.028
NCAPH2 (UniProt Q6IBW4),inactive: -0.029,inactive: 0,inactive: -0.011,inactive: -0.048,inactive: 0.066,inactive: 0.051,inactive: -0.014,inactive: 0.058,inactive: 0.004,inactive: 0.025,inactive: 0.052,active: -0.277,inactive: 0,inactive: 0.037,inactive: -0.008
NARS2 (UniProt Q96I59),inactive: 0.019,inactive: -0.027,inactive: -0.046,inactive: -0.014,inactive: 0.026,inactive: -0.023,inactive: 0.007,inactive: 0.051,inactive: 0.037,inactive: -0.037,inactive: 0.063,active: -0.344,inactive: 0.05,inactive: -0.029,inactive: -0.079
NCOA4 isoform 4 (UniProt Q13772),inactive: -0.041,inactive: 0.002,inactive: -0.018,inactive: -0.047,inactive: -0.013,inactive: -0.005,inactive: -0.107,inactive: 0.057,inactive: 0.173,inactive: -0.051,inactive: 0.015,inactive: -0.202,inactive: 0.038,inactive: -0.037,inactive: 0.023
NACC1 (UniProt Q96RE7),inactive: -0.013,inactive: 0.031,inactive: -0.006,inactive: -0.007,inactive: 0.022,inactive: -0.024,inactive: -0.008,inactive: -0.04,inactive: 0.022,inactive: 0.015,inactive: -0.014,active: -0.231,inactive: 0.024,inactive: -0.004,inactive: -0.036
NCSTN (UniProt Q92542),inactive: -0.061,inactive: -0.02,inactive: 0.03,inactive: 0.029,inactive: 0.008,inactive: -0.023,inactive: 0.03,inactive: 0.015,inactive: 0.047,inactive: 0.003,inactive: 0.041,inactive: 0.13,inactive: 0.025,inactive: -0.008,inactive: -0.007
NASP (UniProt P49321),inactive: 0.002,inactive: 0.01,inactive: 0.034,inactive: 0.007,inactive: 0.001,inactive: 0.052,inactive: 0.024,inactive: -0.026,inactive: -0.016,inactive: -0.001,inactive: 0.003,inactive: 0.098,inactive: -0.015,inactive: 0.001,inactive: 0.015
NARS1 (UniProt O43776),inactive: 0.009,inactive: -0.016,inactive: -0.018,inactive: -0.021,inactive: 0.025,inactive: 0,inactive: -0.01,inactive: 0,inactive: 0.021,inactive: 0.013,inactive: -0.016,inactive: -0.194,inactive: -0.01,inactive: -0.013,inactive: 0.007
NBEA (UniProt Q8NFP9),inactive: -0.018,inactive: -0.007,inactive: -0.06,inactive: 0.02,inactive: -0.015,inactive: -0.021,inactive: 0.045,inactive: 0.025,inactive: 0.015,inactive: 0.051,inactive: -0.013,inactive: -0.152,inactive: 0.015,inactive: -0.062,inactive: 0.025

# Part of the list above, with bars between the fields.
Target | log2 fold change (nilotinib) | log2 fold change [1] | log2 fold change (dasatinib) | log2 fold change [2] | log2 fold change [3] | log2 fold change (quisinostat) | log2 fold change (tipifarnib) | log2 fold change [4] | log2 fold change [5] | log2 fold change [6] | log2 fold change [7] | log2 fold change (vorinostat) | log2 fold change (silmitasertib) | log2 fold change [8] | log2 fold change (entospletinib)
NACA4P (UniProt Q9BZK3) | inactive: 0.03 | inactive: -0.005 | inactive: -0.019 | inactive: -0.02 | inactive: -0.095 | inactive: 0.069 | inactive: -0.023 | inactive: 0.008 | inactive: 0.006 | inactive: -0.09 | inactive: 0.201 | inactive: 0.304 | inactive: 0 | inactive: 0.014 | inactive: -0.172
NACC1 (UniProt Q96RE7) | inactive: -0.013 | inactive: 0.031 | inactive: -0.006 | inactive: -0.007 | inactive: 0.022 | inactive: -0.024 | inactive: -0.008 | inactive: -0.04 | inactive: 0.022 | inactive: 0.015 | inactive: -0.014 | active: -0.231 | inactive: 0.024 | inactive: -0.004 | inactive: -0.036
